In assay [1] the target is ClpC1^NTD (ClpC1 N-terminal domain alone, aa 1 to 147, C-terminal 3xFLAG) (M. smegmatis) (UniProt A0R574). In words: affinity purification with mass spectrometry; 3xFLAG-tagged ClpC1 construct expressed in M. smegmatis MC2155; lysate incubated with anti-FLAG M2 beads 1 h at 4°C in 25 mM HEPES, 10 mM MgCl2, 200 mM KCl, 0.1 mM EDTA, 10 mM ATP, pH 7.5; SDS-PAGE, in-gel trypsin digestion, LC-MS/MS; proteins seen in at least two of three biological replicates; proteins of the empty vector control ignored.

The chains behind the UniProt entries cited, without tags or fusion partners. Residues count along the entry.
ClpC1^NTD (ClpC1 N-terminal domain alone, aa 1 to 147, C-terminal 3xFLAG) (A0R574, residues 1-147): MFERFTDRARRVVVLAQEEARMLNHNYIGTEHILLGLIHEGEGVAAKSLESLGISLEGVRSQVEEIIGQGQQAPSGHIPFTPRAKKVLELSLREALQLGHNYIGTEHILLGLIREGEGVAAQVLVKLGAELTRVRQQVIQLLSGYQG
ClpC1^CORE (ClpC1 lacking the NTD, aa 158 to 848, C-terminal 3xFLAG) (A0R574, residues 158-848): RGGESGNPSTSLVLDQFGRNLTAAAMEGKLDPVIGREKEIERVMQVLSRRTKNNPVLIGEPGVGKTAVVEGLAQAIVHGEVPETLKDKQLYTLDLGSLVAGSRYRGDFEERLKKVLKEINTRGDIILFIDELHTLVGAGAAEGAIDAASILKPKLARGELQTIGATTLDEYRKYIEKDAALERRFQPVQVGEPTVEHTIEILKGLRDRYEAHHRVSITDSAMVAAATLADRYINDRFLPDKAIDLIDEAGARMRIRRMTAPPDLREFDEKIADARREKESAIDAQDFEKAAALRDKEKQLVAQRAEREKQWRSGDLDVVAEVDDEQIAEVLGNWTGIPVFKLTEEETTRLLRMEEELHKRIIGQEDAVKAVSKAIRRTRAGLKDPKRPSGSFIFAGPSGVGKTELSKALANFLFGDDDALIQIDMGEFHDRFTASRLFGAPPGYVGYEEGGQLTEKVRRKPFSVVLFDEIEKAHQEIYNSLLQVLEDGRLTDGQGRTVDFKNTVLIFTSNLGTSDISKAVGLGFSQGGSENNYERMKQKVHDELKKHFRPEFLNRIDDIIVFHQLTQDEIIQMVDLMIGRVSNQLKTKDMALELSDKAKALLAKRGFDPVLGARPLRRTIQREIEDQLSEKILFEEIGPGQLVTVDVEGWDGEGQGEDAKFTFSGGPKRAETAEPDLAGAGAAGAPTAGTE

The target of assay [2] is ClpC1^CORE (ClpC1 lacking the NTD, aa 158 to 848, C-terminal 3xFLAG) (M. smegmatis) (UniProt A0R574). The assay is described as above.

Results are given in words; binding and its absence hold for the method and conditions named. In cells and extracts the contact can be indirect. Here binding means that the protein was enriched with, or labelled near, the bait; the list need not be complete. No binding means not detected with the bait.

Data on 14 molecules can be found in PMC10433963.

B1: Glutamine synthetase (GS) (EC 6.3.1.2) (protein, UniProt A0R079 1-478)
chain: MAEKTSDDIFKLIKDENVEYVDIRFCDLPGVVQHFSIPASAFDESVFEDGLAFDGSSVRGFQSIHESDMMLLPDPNTARIDPFRAAKTLNMNFFVHDPFTREAYSRDPRNVARKAENYLASTGIADTAFFGAEAEFYIFDSVSFDSKINGTFYEVDSESGWWNTGEPFESDGSANRGYKVRPKGGYFPVAPYDHYVDLRDQMATNLQNAGFTLERGHHEVGTAGQAEINYKFNTLLAAADDVLLFKYIIKNTAWQAGKTVTFMPKPLFGDNGSGMHAHQSLWKDGQPLFHDESGYAGLSDIARHYIGGILHHAPSLLAFTNPTVNSYKRLVPGYEAPINLVYSQRNRSACVRIPITGNNPKAKRLEFRCPDSSGNPYLAFAAMLMAGIDGIKKKIEPLQPVDKDLYELPPDEAAAIPQAPTSLSAVIDKLEEDHEYLTEGGVFTEDLIETWISYKRENEIMPIQIRPHPYEFSLYYDV
For the molecule B1, in assay [1], the binding entry is reported as “binds”.

B2: Chaperone protein DnaJ2 (protein, UniProt A0R0T8 1-381)
chain: MARDYYGLLGVSKGASDSEIKRAYRRLARELHPDVNPDEEAQHRFTEIQQAYEVLSDPEKRRIVDMGGDPMESVGGAPNGFGGFGGLGDVFEAFFGGGTTSRGPIGRVRPGSDSLLRMRLDLEECATGVTKEVTVETAVLCDLCHGKGTNGNSSPATCDTCGGRGEIQTVQRSLLGQVMTSRPCPVCGGVGEVIPDPCHRCGGDGRVRARRDISVKIPAGVGDGMRVRLAAQGEVGPGGGPAGDLYVEVHEKPHDVFVRDGDDLHCTISVPMVDAALGCTVTVDAILDGPTELTIPPGTQPGSVTTLRGHGMPHLRSGVRGDLHAHIDVVVPTRLENSDIELLRKFKENRTRDTASVRTAQGSAGSGGGLFSRLRETFTGR
B2: the binding entry in assay [2] is listed as “binds”.

B3: Nitroreductase (protein, UniProt A0R2L3 1-217)
chain: MEFTDVVRTTAAIRQFTGDPLPDDVLRRILDNARFAPSGGNRQGTRVVVIRDRDTREALAELTITGSRRYIAQKRIGENPWNPLHPTAVTEADLAAVDVPRATPLLDAAVVLVVCVDLGVVAAFDQDLDRIGVVSGASVYPFVWNILLSARNEGFGGVLTTMAIAEEPKVKELLAIPDDYAVAAVLPLGKPVHQPTKLTRKPVSEIATRERFDGAPF
On to B3, for which the results for the binding result in assay [2] and in assay [1] were “binds” and “no binding”, respectively.

B4: Ribonuclease E (RNase E) (EC 3.1.26.12) (protein, UniProt A0R152 1-1037)
chain: MAEDAHTEDLSTQTPQQEGLPERLRVHSLARVLGTTSRRVLDALAEFDGRQRSAHSTVDKADAERVRAALTESPAAETPPEEAPAAETPVADLVVVQAEQVEVVTVSEAGPAEPAEPAEPEAPAAEAEAEAETEVADEAETPEPTFRGAVLVGDEPESRLILEHANIPPARETQTERPDYLPLFVAPQPVSFEPAVVDDEDEDDDTETGAESDFDSGADSDSDDDQADRPRRRRRGRRGRGRGRGEQNDDATSDADTDSTEDQTDGDEQESGEDSDDSGDEDSTTTEGGTRRRRRRRRRKSGSGDSDDAVSPDDPPNTVVHERAPRTERSDKSDDSEIQGISGSTRLEAKRQRRRDGRDAGRRRPPILSEAEFLARREAVERTMIVRDKVRTEPPHEGARYTQIAVLEDGVVVEHFVTSAASASLVGNIYLGIVQNVLPSMEAAFVDIGRGRNGVLYAGEVNWEAAGLGGQNRKIEQALKPGDYVVVQVSKDPVGHKGARLTTQVSLAGRYLVYVPGASSTGISRKLPDTERQRLKEILREVVPSDAGVIIRTASEGVKEEDIRSDVERLQKRWSEIEAKAAEVTEKKAGAAVALYEEPDVLVKVIRDLFNEDFSSLIVSGDEAWNTINSYVEAVAPDLMPRLTKYEPAGPDAPDVFAVHRIDEQLAKAMDRKVWLPSGGTLVIDRTEAMTVVDVNTGKFTGSGGNLEQTVTRNNLEAAEEIVRQLRLRDIGGIVVIDFIDMVLESNRDLVLRRLTEALARDRTRHQVSEVTSLGLVQLTRKRLGTGLVEAFSTACTHCGGRGIVLHGDPIDSASSNGGRKSDSSGGGGSGGGRRGKRGKKGAARTEEVHVAKVPDHTPGEHPMFKAMAAANGKHEGDEDHEDHEDHETAEDTTAAEVRDDTRDEHDADERAHVVTAAVGAAGDEDLDDSDEDSDLDSDEESDDESDEDEIELDDDEDELDEDIEVIGDSDDSDDSDDSDEDDDSDDSDDDSDEDEDSDSDEDEEPVREVYEPPVTAPRARVRRRAAARPAGPPSHD
Turning to B4, the results for the binding result in assay [2] and in assay [1] were “binds” and “no binding”, respectively.

B5: ATPase, MoxR family protein (protein, UniProt A0QX24 1-348)
chain: MNNGGLQAEVHTLERAIFEVKRIIVGQDQLVERMLVGLLAKGHVLLEGVPGVAKTLAVETFAKVVGGTFARIQFTPDLVPTDIVGTRIYRQGKEEFEIELGPAVVNFLLADEINRAPAKVQSALLEIMAERKISIGGQTFPLPSPFLVMATQNPIEQEGVYQLPEAQRDRFLFKLNVDYPSPEEEREIIYRMGVKPPEPKQILTTGDLLRLQDVAANTFVHHALVDYVVRIVTATREPEKFGMPDAKAWIAYGASPRASLGIISAARALALVRGRDYVIPQDVVEVIPDVLRHRLVLTYDALADEISSETVVNRILQTVALPQVNALPQQGHSVPPAVPAAAAAASGR
Regarding B5, the results for the binding entry in assay [2] and in assay [1] were “no binding” and “binds”, respectively.

B6: Lipoarabinomannan carrier protein LprG (protein, UniProt A0QWU8 26-236)
chain: CSSSSETSDAPLPDGAALLQESASKTKTQQSVHLLLTVQGKVDGLPVEKLDGDLTNAPAVAAEGTADLIAFGQKIADAKFVIADGNLYAALTPGDPLSNYGAAANIYDVSAILNPDTGLANVLANFSDATADGRESINGTEAVRVKGNVSADAVNKIAPALKADGPVPGTAWITEDDHTLLQAQLEPTPGNSVTMTLSDWGKQVNVTKPAA
As for B6, the binding entry is reported as “no binding” in assay [2] and “binds” in assay [1].

B7: Glyoxalase family protein (protein, UniProt A0QSB2 1-427)
chain: MNADHDPLTVLHQHDEPPVAPDPEFVARLRARLEAALTLPNRTEGVVMTGTDTAIAELKSPSQAAPRPAVISYLTVADARAAIGFYVDALGARVLGDPIVMDDGRIGHAELLLAGGVLYLADEFPEIGLKAPAPNAVSVSLMLSVPDTDAALARAAAHGARVQREPYEDHGTRNATFIDPSGHRWMLSGPVGVRVPVEAIRHGDVGYVSVWVPDADRAAAFYGHVLGWTYDPATRQVTNTQEHIGIFSVAGAPTMFCCYAVDDLDAARRAITAGGGTPGEVRESEFGTVLDATDPAGTAFAVFEPVPGTPRPAVNGTGPGSLSYITYNVPDSAAFKEFYGHVLSWTFEPGRIADGWGVQNCQPMSGMAGGSDRATTVPMWTVADIDAAVTRVREAGGTVISAPARQPYGLMAECTDDQGARFYLGEF
As to B7, the binding entry in assay [2] is reported as “binds”; in assay [1] it was “no binding”.

B8: Sec-independent protein translocase protein TatA (protein, UniProt A0QZ40 1-81)
chain: MGGLQPWHWVIVIAVFVLLFGAKKLPDAARSLGKSMRIFKSEIKEMQAESKGDEPKPATPIASERVDTTAPEQQSTDRHTA
As to B8, the binding result is reported as “no binding” in assay [2] and “binds” in assay [1].

B9: 4-Aminobutyrate transaminase (EC 2.6.1.19) (protein, UniProt A0R6V5 1-450)
chain: MTATLTGGPDLQQARRILTEIPGPRSRDLAERRNAALPAGLASGAGVYIAAAGGGVVVDVDGNSFIDLGSGIAVTTVGNAAPAVVSRAGSQLAQYTHTCFLNVPYEPYIEVAERLNALTPGDHQKRTALFSTGAEAVENAVKYARAYTGRDAVVVFDHAFHGRSLLTMTMTAKNQPYKHGFGPFAPEVYRAPMAYPYRWPSGPENCAAEAFDLFTTLIDAQIGADQVACVVVEPIQGEGGFIVPAEGFLQKVADFCRERGILVVADEVQTGIARTGAWFACEHEDLVPDLITTAKGLGGGLPLAAVTGRAEIMDAAHAGGIGGTYAGNPVACAAALGVFDEIEQNGLIERARAIGEVIVAELRSIAATTGLIGEIRGRGAMIAVELIKPGTREPNKEAVAALAKHCHDNGVLTLTAGTFGNVLRFLPPLTITDELLVDAFGVIRDGFAAL
For B9, the values for the binding result in assay [2] and in assay [1] were “no binding” and “binds”, respectively.

B10: Transcriptional regulator, GntR family protein (protein, UniProt A0QZJ0 1-252)
chain: MSPTPDPQSAVPAREIAYRIVYDAIASGRYLPGQWIREDEVTAEAGVSRTPLREALQRLQSEGLVQLVRHRGALVVGWTSADLDDLFDIRVALETYGARRAAQRRGGAQLESLQKLCASMDEILPAAQEPELQQLGHLCIDFHRGIHEAADNRKLLSVMPMVLAPPFVSEAFHHHTRLELEQAFAHHRELVEAIAIGDEDWAEGVMRAHLRHGRRSLRRMERHLPLMTSHDAEPAVTDTGQPETTSSDPVHE
As to B10, the binding entry in assay [2] was “binds”.

B11: Protein RecA (recombinase A) (protein, UniProt Q59560 1-349)
chain: MAQQAPDREKALELAMAQIDKNFGKGSVMRLGEEVRQPISVIPTGSISLDVALGIGGLPRGRVIEIYGPESSGKTTVALHAVANAQAAGGIAAFIDAEHALDPEYAKKLGVDTDSLLVSQPDTGEQALEIADMLVRSGALDIIVIDSVAALVPRAEIEGEMGDSHVGLQARLMSQALRKMTGALNNSGTTAIFINQLREKIGVMFGSPETTTGGKALKFYASVRLDVRRIETLKDGTDAVGNRTRVKVVKNKVSPPFKQAEFDILYGQGISREGSLIDMGVEHGFIRKSGSWFTYEGEQLGQGKENARKFLLENTDVANEIEKKIKEKLGIGAVVTAEADDVLPAPVDF
As to B11, the figures for the binding result in assay [2] and in assay [1] were “binds” and “no binding”, respectively.

B12: Nitrogen regulatory protein P-II (protein, UniProt A0QV28 1-112)
chain: MKLITAIVKPFTLEDVKTGLEQTGILGMTVSEVQGYGRQKGHTEVYRGAEYSVDFVPKVRVEVVVDDSAVDKVVDVIVQAARTGKIGDGKVWVSPVETVVRVRTGERGADAL
Take B12: the values for the binding result in assay [2] and in assay [1] were “no binding” and “binds”, respectively.

B13: 35-kDa protein (protein, UniProt A0QVU2 1-279)
chain: MANPFVKAWKYLMALFSSKVDEYADPKVQIQQAIEDAQRQHQALTQQAAQVIGNQRQLEMRLNRQLADIEKLQVNVRQALTLADQATAAGDVAKATEYNNAAEAFAAQLVTAEQSVEDLKGLHDQALQAAGQAKKAVEQNAMMLQQKIAERTKLLSQLEQAKMQEQVSSSLRSMSELAAPGTTPSLDEVRQKIERRYANAMGEAELAQNSVQGRMMEIQQASVQMAGHSRLEQIRASMRGEALPSGGATSTPATPSTQGTPSDPATNQTPPNTENPLGQ
As to B13, the binding entry in assay [1] is on record as “binds”.

B14: 30S ribosomal protein S18 2 (protein, UniProt A0R7F7 1-84)
chain: MAKSNKRRPAPEKPVKTRKCVFCSKKGQTIDYKDTALLRTYISERGKIRARRVTGNCVQHQRDIAVAVKNAREVALLPFGSSTR
Consider B14, for which the binding result is given as “no binding” in assay [2] and “binds” in assay [1].
